The record followed here is paper PMC7910609.

Amino acid sequences for entries named in this document (tags omitted).
UniProt P31749: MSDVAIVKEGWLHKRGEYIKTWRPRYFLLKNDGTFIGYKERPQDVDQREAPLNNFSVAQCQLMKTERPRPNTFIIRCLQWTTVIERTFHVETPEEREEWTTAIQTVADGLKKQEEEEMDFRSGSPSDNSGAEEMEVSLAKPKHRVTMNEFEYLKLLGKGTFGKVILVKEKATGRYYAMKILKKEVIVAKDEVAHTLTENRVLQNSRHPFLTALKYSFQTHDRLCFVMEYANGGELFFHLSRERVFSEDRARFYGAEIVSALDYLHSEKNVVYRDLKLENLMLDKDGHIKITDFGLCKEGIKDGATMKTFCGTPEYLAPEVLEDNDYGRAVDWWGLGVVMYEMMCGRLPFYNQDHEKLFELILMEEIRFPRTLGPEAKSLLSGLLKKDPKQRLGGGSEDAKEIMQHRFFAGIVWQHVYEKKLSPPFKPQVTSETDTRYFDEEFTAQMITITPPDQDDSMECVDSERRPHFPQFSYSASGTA
UniProt Q9NVI1: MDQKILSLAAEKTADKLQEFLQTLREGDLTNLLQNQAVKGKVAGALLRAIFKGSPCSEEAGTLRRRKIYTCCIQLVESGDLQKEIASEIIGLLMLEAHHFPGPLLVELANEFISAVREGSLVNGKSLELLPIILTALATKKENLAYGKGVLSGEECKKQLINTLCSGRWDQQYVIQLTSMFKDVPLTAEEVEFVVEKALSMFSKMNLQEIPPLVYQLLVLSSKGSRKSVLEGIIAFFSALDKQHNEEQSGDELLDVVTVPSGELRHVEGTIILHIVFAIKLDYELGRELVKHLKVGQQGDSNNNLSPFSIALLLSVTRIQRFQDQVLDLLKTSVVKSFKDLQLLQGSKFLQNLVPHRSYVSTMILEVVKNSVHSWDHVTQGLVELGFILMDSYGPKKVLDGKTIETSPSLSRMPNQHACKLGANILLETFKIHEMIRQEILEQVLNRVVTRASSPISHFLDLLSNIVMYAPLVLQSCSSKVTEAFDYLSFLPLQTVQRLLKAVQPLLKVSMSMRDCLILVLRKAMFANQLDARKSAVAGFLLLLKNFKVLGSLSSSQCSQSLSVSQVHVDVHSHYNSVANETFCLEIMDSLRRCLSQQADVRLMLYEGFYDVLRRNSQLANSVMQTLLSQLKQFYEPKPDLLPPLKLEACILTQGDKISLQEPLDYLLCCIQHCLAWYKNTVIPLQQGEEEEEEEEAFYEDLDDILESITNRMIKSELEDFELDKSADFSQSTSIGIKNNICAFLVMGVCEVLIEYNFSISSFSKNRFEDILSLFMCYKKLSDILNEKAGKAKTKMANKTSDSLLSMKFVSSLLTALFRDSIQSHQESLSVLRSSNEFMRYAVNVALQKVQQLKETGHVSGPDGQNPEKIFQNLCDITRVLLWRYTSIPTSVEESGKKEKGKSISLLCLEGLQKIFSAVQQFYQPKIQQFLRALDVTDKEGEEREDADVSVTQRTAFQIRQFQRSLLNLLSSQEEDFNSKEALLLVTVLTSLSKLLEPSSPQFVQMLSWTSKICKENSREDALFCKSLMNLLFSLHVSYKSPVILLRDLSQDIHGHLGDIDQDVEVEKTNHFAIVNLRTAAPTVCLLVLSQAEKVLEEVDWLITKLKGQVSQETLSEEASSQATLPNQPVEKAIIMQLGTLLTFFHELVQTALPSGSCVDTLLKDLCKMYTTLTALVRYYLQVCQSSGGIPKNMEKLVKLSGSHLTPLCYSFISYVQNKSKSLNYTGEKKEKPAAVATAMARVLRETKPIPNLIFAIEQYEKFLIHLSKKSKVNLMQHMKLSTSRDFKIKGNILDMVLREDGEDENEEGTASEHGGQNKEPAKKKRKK
UniProt Q7L5D6: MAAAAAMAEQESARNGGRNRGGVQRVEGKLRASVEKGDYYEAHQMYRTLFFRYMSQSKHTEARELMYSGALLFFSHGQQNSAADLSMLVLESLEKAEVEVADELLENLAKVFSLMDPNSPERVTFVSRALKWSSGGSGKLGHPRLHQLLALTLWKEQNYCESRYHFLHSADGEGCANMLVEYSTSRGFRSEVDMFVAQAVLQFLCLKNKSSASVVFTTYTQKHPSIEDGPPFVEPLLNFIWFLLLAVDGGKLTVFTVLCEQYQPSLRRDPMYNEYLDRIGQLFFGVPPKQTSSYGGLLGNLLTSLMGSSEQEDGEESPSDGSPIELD

First the molecules themselves.
B1: PHLPP2 (protein, UniProt Q6ZVD8 1-1323)
chain: MKRNGSRNCLNRRSRFGSRERDWLREDVKRGCVYLYGADTTTATTTTTTSSSSSSSSSSSDLHLVLCTVETPASEICAGEGRESLYLQLHGDLVRRLEPTERPLQIVYDYLSRLGFDDPVRIQEEATNPDLGCMIRFYGEKPCHMDRLDRILLSGIYNVRKGKTQLHKWAERLVVLCGTCLIVSSVKDCQTGKMHILPLVGGKIEEVKRRQYSLAFSSAGAQAQTYHVSFETLAEYQRWQRQASKVVSQRISTVDLSCYSLEEVPEHLFYSQDITYLNLRHNFMQLERPGGLDTLYKFSQLKGLNLSHNKLGLFPILLCEISTLTELNLSCNGFHDLPSQIGNLLNLQTLCLDGNFLTTLPEELGNLQQLSSLGISFNNFSQIPEVYEKLTMLDRVVMAGNCLEVLNLGVLNRMNHIKHVDLRMNHLKTMVIENLEGNKHITHVDLRDNRLTDLDLSSLCSLEQLHCGRNQLRELTLSGFSLRTLYASSNRLTAVNVYPVPSLLTFLDLSRNLLECVPDWACEAKKIEVLDVSYNLLTEVPVRILSSLSLRKLMLGHNHVQNLPTLVEHIPLEVLDLQHNALTRLPDTLFSKALNLRYLNASANSLESLPSACTGEESLSMLQLLYLTNNLLTDQCIPVLVGHLHLRILHLANNQLQTFPASKLNKLEQLEELNLSGNKLKTIPTTIANCKRLHTLVAHSNNISIFPEILQLPQIQFVDLSCNDLTEILIPEALPATLQDLDLTGNTNLVLEHKTLDIFSHITTLKIDQKPLPTTDSTVTSTFWSHGLAEMAGQRNKLCVSALAMDSFAEGVGAVYGMFDGDRNEELPRLLQCTMADVLLEEVQQSTNDTVFMANTFLVSHRKLGMAGQKLGSSALLCYIRPDTADPASSFSLTVANVGTCQAVLCRGGKPVPLSKVFSLEQDPEEAQRVKDQKAIITEDNKVNGVTCCTRMLGCTYLYPWILPKPHISSTPLTIQDELLILGNKALWEHLSYTEAVNAVRHVQDPLAAAKKLCTLAQSYGCQDNVGAMVVYLNIGEEGCTCEMNGLTLPGPVGFASTTTIKDAPKPATPSSSSGIASEFSSEMSTSEVSSEVGSTASDEHNAGGLDTALLPRPERRCSLHPTPTSGLFQRQPSSATFSSNQSDNGLDSDDDQPVEGVITNGSKVEVEVDIHCCRGRDLENSPPLIESSPTLCSEEHARGSCFGIRRQNSVNSGMLLPMSKDRMELQKSPSTSCLYGKKLSNGSIVPLEDSLNLIEVATEVPKRKTGYFAAPTQMEPEDQFVVPHDLEEEVKEQMKQHQDSRLEPEPHEEDRTEPPEEFDTAL
B2: MAZ (protein, UniProt P56270 1-477)
chain: MFPVFPCTLLAPPFPVLGLDSRGVGGLMNSFPPPQGHAQNPLQVGAELQSRFFASQGCAQSPFQAAPAPPPTPQAPAAEPLQVDLLPVLAAAQESAAAAAAAAAAAAAVAAAPPAPAAASTVDTAALKQPPAPPPPPPPVSAPAAEAAPPASAATIAAAAATAVVAPTSTVAVAPVASALEKKTKSKGPYICALCAKEFKNGYNLRRHEAIHTGAKAGRVPSGAMKMPTMVPLSLLSVPQLSGAGGGGGEAGAGGGAAAVAAGGVVTTTASGKRIRKNHACEMCGKAFRDVYHLNRHKLSHSDEKPYQCPVCQQRFKRKDRMSYHVRSHDGAVHKPYNCSHCGKSFSRPDHLNSHVRQVHSTERPFKCEKCEAAFATKDRLRAHTVRHEEKVPCHVCGKMLSSAYISDHMKVHSQGPHHVCELCNKGTGEVCPMAAAAAAAAAAAAAAVAAPPTAVGSLSGAEGVPVSSQPLPSQPW

No constants are given. Whether binding was seen depends on the method and setting. Some entries that bind do so weakly or less than the wild type.

In this assay the target is protein kinase B (AKT1) (UniProt P31749). Kind of assay: thermal proteome profiling (TPP); 500 nM AKT1 alone added to cell lysate with phosphatase inhibitors, 37 °C for 30 min; aliquots heated at 37-67 °C for 3 min; soluble fraction quantified by TMT LC-MS/MS; read-out is the Tm shift against vehicle; duplicates; only the target purified.
For the molecule FANCI (from UniProt Q9NVI1 1-1328), the binding entry is listed as “binds”.

As for GET4 (from UniProt Q7L5D6 1-327), the binding entry is “binds”.

B1: the binding result is listed as “binds”.

For B2, the binding result is “binds”.
